{"source": "the supplement of paper PMC8728848", "binders": {"B1": {"name": "Loc1 (Escherichia coli) (protein)", "chain": "APCALTNVGEQRGTYILKPLSMKGNLTAEKIENTGNIIECTDLQETTNAIKVHFLTQNALKFKVGSRHYIINFPFEYDGKKIELPGKSSYNLEEMLSAINFTIPYSIASVSDSSNTADIFPGTPFPLLFEIEVSSCTGNNTNCNSVRFNYNLNTILQVNLMTHHHHHH"}}, "experiment_in_all_cases": "glycan array binding signal (z-score within array); higher = stronger binding", "settings_in_all_cases": "glycan notation: IUPAC condensed, linker removed", "key": {"[1]": {"target": "Gal(b1-4)GlcNAc(b1-2)Man(a1-6)[Man(a1-3)]Man(b1-4)GlcNAc(b1-4)GlcNAc", "procedure,_shortened": "(§1)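 Arrays were curated from the Consortium for Functional Glycomics database, 3228 in total, and kept only where the protein sequence was available. Binding is expressed as a within-array Z-score. This score was averaged across arrays of the same protein sequence at different concentrations or buffers and across linkers, and negative values can be read as non-binding.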"}, "[2]": {"target": "Gal(b1-4)GlcNAc(b1-2)[Gal(b1-4)GlcNAc(b1-4)]Man(a1-3)[Gal(b1-4)GlcNAc(b1-2)Man(a1-6)]Man(b1-4)GlcNAc(b1-4)GlcNAc", "procedure,_shortened": "as §1"}, "[3]": {"target": "Gal(b1-4)GlcNAc(b1-2)[Gal(b1-4)GlcNAc(b1-4)]Man(a1-3)[Gal(b1-4)GlcNAc(b1-2)[Gal(b1-4)GlcNAc(b1-6)]Man(a1-6)]Man(b1-4)GlcNAc(b1-4)GlcNAc", "procedure,_shortened": "as §1"}, "[4]": {"target": "Gal(b1-4)GlcNAc(b1-2)[Gal(b1-4)GlcNAc(b1-4)]Man(a1-3)[GlcNAc(b1-4)][Gal(b1-4)GlcNAc(b1-2)Man(a1-6)]Man(b1-4)GlcNAc(b1-4)GlcNAc", "procedure,_shortened": "as §1"}, "[5]": {"target": "Gal(b1-4)GlcNAc(b1-2)[Gal(b1-4)GlcNAc(b1-4)]Man(a1-3)[GlcNAc(b1-4)][Gal(b1-4)GlcNAc(b1-2)[Gal(b1-4)GlcNAc(b1-6)]Man(a1-6)]Man(b1-4)GlcNAc(b1-4)GlcNAc", "procedure,_shortened": "as §1"}, "[6]": {"target": "Gal(b1-4)GlcNAc(b1-2)[Gal(b1-4)GlcNAc(b1-6)]Man(a1-6)[Gal(b1-4)GlcNAc(b1-2)Man(a1-3)]Man(b1-4)GlcNAc(b1-4)GlcNAc", "procedure,_shortened": "as §1"}, "[7]": {"target": "Gal(b1-4)GlcNAc(b1-2)[Gal(b1-4)GlcNAc(b1-6)]Man(a1-6)[Gal(b1-4)GlcNAc(b1-2)Man(a1-3)]Man(b1-4)GlcNAc(b1-4)[Fuc(a1-6)]GlcNAc", "procedure,_shortened": "as §1"}, "[8]": {"target": "Gal(b1-4)GlcNAc(b1-2)[Gal(b1-4)GlcNAc(b1-6)]Man(a1-6)[GlcNAc(b1-4)][Gal(b1-4)GlcNAc(b1-2)Man(a1-3)]Man(b1-4)GlcNAc(b1-4)GlcNAc", "procedure,_shortened": "as §1"}, "[9]": {"target": "Gal(b1-4)GlcNAc(b1-2)[Gal(b1-4)GlcNAc(b1-6)]Man(a1-6)[GlcNAc(b1-4)][Gal(b1-4)GlcNAc(b1-2)[Gal(b1-4)GlcNAc(b1-4)]Man(a1-3)]Man(b1-4)GlcNAc(b1-4)[Fuc(a1-6)]GlcNAc", "procedure,_shortened": "as §1"}, "[10]": {"target": "Gal(b1-4)GlcNAc(b1-3)Gal(b1-3)GalNAc", "procedure,_shortened": "as §1"}, "[11]": {"target": "Gal(b1-4)GlcNAc(b1-3)Gal(b1-3)GlcNAc", "procedure,_shortened": "as §1"}, "[12]": {"target": "Gal(b1-4)GlcNAc(b1-3)Gal(b1-4)Glc", "procedure,_shortened": "as §1"}, "[13]": {"target": "Gal(b1-4)GlcNAc(b1-3)Gal(b1-4)GlcNAc", "procedure,_shortened": "as §1"}, "[14]": {"target": "Gal(b1-4)GlcNAc(b1-3)Gal(b1-4)GlcNAc(b1-2)Man(a1-3)[Gal(b1-4)GlcNAc(b1-3)Gal(b1-4)GlcNAc(b1-2)Man(a1-6)]Man(b1-4)GlcNAc(b1-4)GlcNAc", "procedure,_shortened": "as §1"}, "[15]": {"target": "Gal(b1-4)GlcNAc(b1-3)Gal(b1-4)GlcNAc(b1-2)Man(a1-3)[Gal(b1-4)GlcNAc(b1-3)Gal(b1-4)GlcNAc(b1-2)Man(a1-6)]Man(b1-4)GlcNAc(b1-4)[Fuc(a1-6)]GlcNAc", "procedure,_shortened": "as §1"}, "[16]": {"target": "Gal(b1-4)GlcNAc(b1-3)Gal(b1-4)GlcNAc(b1-2)[Gal(b1-4)GlcNAc(b1-3)Gal(b1-4)GlcNAc(b1-6)]Man(a1-6)[Gal(b1-4)GlcNAc(b1-3)Gal(b1-4)GlcNAc(b1-2)Man(a1-3)]Man(b1-4)GlcNAc(b1-4)GlcNAc", "procedure,_shortened": "as §1"}, "[17]": {"target": "Gal(b1-4)GlcNAc(b1-3)Gal(b1-4)GlcNAc(b1-2)[Gal(b1-4)GlcNAc(b1-3)Gal(b1-4)GlcNAc(b1-6)]Man(a1-6)[Gal(b1-4)GlcNAc(b1-3)Gal(b1-4)GlcNAc(b1-2)Man(a1-3)]Man(b1-4)GlcNAc(b1-4)[Fuc(a1-6)]GlcNAc", "procedure,_shortened": "as §1"}, "[18]": {"target": "Gal(b1-4)GlcNAc(b1-3)Gal(b1-4)GlcNAc(b1-3)Gal(b1-4)GlcNAc", "procedure,_shortened": "as §1"}, "[19]": {"target": "Gal(b1-4)GlcNAc(b1-3)Gal(b1-4)GlcNAc(b1-3)Gal(b1-4)GlcNAc(b1-2)Man(a1-3)[Gal(b1-4)GlcNAc(b1-3)Gal(b1-4)GlcNAc(b1-3)Gal(b1-4)GlcNAc(b1-2)Man(a1-6)]Man(b1-4)GlcNAc(b1-4)GlcNAc", "procedure,_shortened": "as §1"}, "[20]": {"target": "Gal(b1-4)GlcNAc(b1-3)Gal(b1-4)GlcNAc(b1-3)Gal(b1-4)GlcNAc(b1-2)Man(a1-3)[Gal(b1-4)GlcNAc(b1-3)Gal(b1-4)GlcNAc(b1-3)Gal(b1-4)GlcNAc(b1-2)Man(a1-6)]Man(b1-4)GlcNAc(b1-4)[Fuc(a1-6)]GlcNAc", "procedure,_shortened": "as §1"}, "[21]": {"target": "Gal(b1-4)GlcNAc(b1-3)Gal(b1-4)GlcNAc(b1-3)Gal(b1-4)GlcNAc(b1-2)[Gal(b1-4)GlcNAc(b1-3)Gal(b1-4)GlcNAc(b1-3)Gal(b1-4)GlcNAc(b1-6)]Man(a1-6)[Gal(b1-4)GlcNAc(b1-3)Gal(b1-4)GlcNAc(b1-3)Gal(b1-4)GlcNAc(b1-2)Man(a1-3)]Man(b1-4)GlcNAc(b1-4)[Fuc(a1-6)]GlcNAc", "procedure,_shortened": "as §1"}, "[22]": {"target": "Gal(b1-4)GlcNAc(b1-3)Gal(b1-4)GlcNAc(b1-3)Gal(b1-4)GlcNAc(b1-3)Gal(b1-4)GlcNAc(b1-2)Man(a1-3)[Gal(b1-4)GlcNAc(b1-3)Gal(b1-4)GlcNAc(b1-3)Gal(b1-4)GlcNAc(b1-3)Gal(b1-4)GlcNAc(b1-2)Man(a1-6)]Man(b1-4)GlcNAc(b1-4)GlcNAc", "procedure,_shortened": "as §1"}}, "note": "The other results are listed elsewhere or left out.", "data": [{"binder": "B1", "values": [{"measurement": "glycan array binding signal (z-score)", "setting": "[1]", "result": 1.03}, {"measurement": "glycan array binding signal (z-score)", "setting": "[2]", "result": -0.504}, {"measurement": "glycan array binding signal (z-score)", "setting": "[3]", "result": -0.441}, {"measurement": "glycan array binding signal (z-score)", "setting": "[4]", "result": -0.473}, {"measurement": "glycan array binding signal (z-score)", "setting": "[5]", "result": -0.38}, {"measurement": "glycan array binding signal (z-score)", "setting": "[6]", "result": -0.148}, {"measurement": "glycan array binding signal (z-score)", "setting": "[7]", "result": -0.213}, {"measurement": "glycan array binding signal (z-score)", "setting": "[8]", "result": 0.016}, {"measurement": "glycan array binding signal (z-score)", "setting": "[9]", "result": 0.242}, {"measurement": "glycan array binding signal (z-score)", "setting": "[10]", "result": 0.355}, {"measurement": "glycan array binding signal (z-score)", "setting": "[11]", "result": 0.195}, {"measurement": "glycan array binding signal (z-score)", "setting": "[12]", "result": 0.057}, {"measurement": "glycan array binding signal (z-score)", "setting": "[13]", "result": 0.267}, {"measurement": "glycan array binding signal (z-score)", "setting": "[14]", "result": 0.193}, {"measurement": "glycan array binding signal (z-score)", "setting": "[15]", "result": -0.121}, {"measurement": "glycan array binding signal (z-score)", "setting": "[16]", "result": 1.74}, {"measurement": "glycan array binding signal (z-score)", "setting": "[17]", "result": 2.29}, {"measurement": "glycan array binding signal (z-score)", "setting": "[18]", "result": -1.06}, {"measurement": "glycan array binding signal (z-score)", "setting": "[19]", "result": 0.862}, {"measurement": "glycan array binding signal (z-score)", "setting": "[20]", "result": 0.598}, {"measurement": "glycan array binding signal (z-score)", "setting": "[21]", "result": 1.02}, {"measurement": "glycan array binding signal (z-score)", "setting": "[22]", "result": 0.053}]}]}
